# This is one part of the list. The data scatter; read single values as rough.
# Compound: ClCC(=O)N[C@H]1CCCc2ccccc12
# Assay: log2 mean competition ratio of IA-DTB cysteine labelling (DMSO/compound) (log2 ratio); higher = stronger cysteine engagement by compound
# Conditions: 200 µM; treatment time: 4 h; cell line lysate: HEK293T
# Protocol: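 IA-DTB competitive cysteine chemoproteomics in HEK293T RIPA lysate. Lysates were treated with compound 29 or 30 at 50 or 200 µM for 4 h, then IA-DTB (500 µM, 1 h), trypsin-digested, NeutrAvidin-enriched and analysed by diaPASEF. Competition ratio = intensity DMSO / intensity compound (n=4 treated, n=64 DMSO); binding: mean log2 CR ≥ 1 and p ≤ 0.05 plus QC filters. Target is the cysteine site.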
row,Target,log2 mean competition ratio
1,HECTD1 C2275 (UniProt Q9ULT8),0.0365
2,GUF1 C221 (UniProt Q8N442),0.179
3,HDLBP C948,0.0614
4,HOXB6 C184,0.0571
5,GTF3C1 C1681 (UniProt Q12789),-0.093
6,HECTD4 C3836,0.216
7,GTF3C5 C26 (UniProt Q9Y5Q8),-0.199
8,HIRIP3 C86 (UniProt Q9BW71),0.209
9,HBS1L C504 (UniProt Q9Y450),-0.095
10,HNRNPA2B1 C50 (UniProt P22626),-0.363
11,HBS1L C491 (UniProt Q9Y450),-0.14
12,HINT1 C84 (UniProt P49773),-0.172
13,HARS2 C225 (UniProt P49590),-0.0487
14,HEATR5A C1635 (UniProt Q86XA9),-0.142
15,GSTM3 C178 (UniProt P21266),0.168
16,HAUS6 C185 (UniProt Q7Z4H7),0.128
17,HK2 C517 (UniProt P52789),0.285
18,GZF1 C282 (UniProt Q9H116),-0.0322
19,HECTD1 C507 (UniProt Q9ULT8),0.171

# Random excerpt: two entries already listed
row,Target,log2 mean competition ratio
15,GSTM3 C178 (UniProt P21266),0.168
12,HINT1 C84 (UniProt P49773),-0.172

# Next records:

row,Target,log2 mean competition ratio
1,HEXIM2 C80 (UniProt Q96MH2),-0.0599
2,HEXIM2 C10 (UniProt Q96MH2),-0.0405
3,HNRNPU C562 (UniProt Q00839),0.0378
4,HEATR1 C1237 (UniProt Q9H583),-0.0439
5,HAUS5 C12 (UniProt O94927),0.0922
6,GTF3C4 C441 (UniProt Q9UKN8),-0.157
7,HNRNPU C607 (UniProt Q00839),-0.227
8,HNRNPA3 C196 (UniProt P51991),-0.271
9,HELB C646 (UniProt Q8NG08),-0.0369
10,HAUS6 C323 (UniProt Q7Z4H7),-0.163
11,HDAC2 C417 (UniProt Q92769),-0.198
12,HELB C608 (UniProt Q8NG08),-0.12
13,HIBCH C336 (UniProt Q6NVY1),0.201
14,H3-7 C111,0.0734
15,HOXA11 C200,0.175
16,HDLBP C636,0.166
17,HELZ2 C1545 (UniProt Q9BYK8),-0.224
18,GTF3C4 C764 (UniProt Q9UKN8),0.228
